Out of some 78,000 compounds screened, about 1,800 (2.3%) were called active. This list was built around the results that the source calls inconclusive (neither active nor inactive); the mix of calls is not that of the screen. No stated cut-off is given here; in the data, active means inhibition above about 30%; inconclusive means mostly about 10% to 28%; inactive means weaker than that.
Each compound was assayed against Interleukin-1 receptor-like 1 (Homo sapiens) (UniProt Q01638) (assay: blocks human ST2 binding to IL-33, primary screen, biochemical, AlphaLISA (AID 1259354)). Conditions: AlphaLISA ST2-Fc/biotin-IL-33 interaction, 1 h; at 17 µM, hits give high values.

Chains of the proteins cited; added tags and fusions are not shown. Lines headed by an entry give the natural chain unless they say otherwise; changes in a name come on top.
UniProt Q01638: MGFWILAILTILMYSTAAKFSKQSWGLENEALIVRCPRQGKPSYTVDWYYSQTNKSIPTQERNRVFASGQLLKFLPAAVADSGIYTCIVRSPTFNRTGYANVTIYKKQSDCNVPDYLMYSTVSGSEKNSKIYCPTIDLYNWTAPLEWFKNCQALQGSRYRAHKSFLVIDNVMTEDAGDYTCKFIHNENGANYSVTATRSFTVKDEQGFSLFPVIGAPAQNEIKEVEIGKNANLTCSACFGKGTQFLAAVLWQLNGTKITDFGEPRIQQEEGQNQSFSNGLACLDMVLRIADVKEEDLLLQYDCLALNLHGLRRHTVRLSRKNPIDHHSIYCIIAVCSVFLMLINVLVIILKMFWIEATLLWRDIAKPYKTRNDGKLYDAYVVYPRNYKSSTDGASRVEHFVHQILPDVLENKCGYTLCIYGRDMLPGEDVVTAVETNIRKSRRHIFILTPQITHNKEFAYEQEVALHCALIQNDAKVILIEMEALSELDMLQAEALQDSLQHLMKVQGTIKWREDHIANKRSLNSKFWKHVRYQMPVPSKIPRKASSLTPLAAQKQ

| SMILES | inhibition |
| --- | --- |
| CCOC(=O)N1CCN(C2CCCN(C(=O)c3csc(NC)n3)C2)CC1 (centres undefined) | inconclusive: 16% |
| N#Cc1cccc(NC(=O)N2C[C@@H]3C[C@H](C2)c2c(-c4cc5ccccc5s4)ccc(=O)n2C3)c1 | inactive |
| COCc1cc(C[C@H]2CNCC[C@H]2CC(=O)NCc2ccc(OC)cc2)no1 | inconclusive: 19% |
| Cc1ccc(C2C3=C(Nc4c2c(=O)[nH]c(=O)n4C)c2ccccc2C3=O)cc1 (centres undefined) | active: 38% |
| CCn1c(C2CCNCC2)nn(Cc2ncccn2)c1=O | inconclusive: 11% |
| CC(=O)Nc1ccc(Nc2nc(-c3nnc(-c4ccc(F)cc4)o3)nc3ccccc23)cc1 | inconclusive: 22% |
| O=C(CC(c1ccccc1)c1ccc2c(c1)OCO2)NCCN1CCOC1=O (centres undefined) | inconclusive: 12% |
| Cc1ccccc1NC(=O)Nc1ccc(Cl)cc1 | inconclusive: 10% |
| CC(C)(C)n1nc2c(c1NC(=O)c1c(F)cccc1Cl)CS(=O)C2 (centres undefined) | inconclusive: 10% |
| NC(=O)c1ccccc1-c1ccc(F)cc1Cl | inconclusive: 12% |
| CSc1cccc(-n2cc(-c3ccc(F)cc3)[nH]c2=O)c1 | inconclusive: 22% |
| Cc1nc(-n2cc(F)c(=O)[nH]c2=O)c2nc(C)oc2n1 | inconclusive: 13% |
| Cc1ccc(N2NC(=O)/C(=C/c3ccc(N(C)C)cc3)C2=O)cc1Cl | inconclusive: 11% |
| COc1ccccc1-n1c(SCC(=O)N2CCC(C)CC2)nc2c(c1=O)SCC2 | inconclusive: 18% |
| CCc1ccccc1-c1nccc(NC)n1 | inconclusive: 14% |
| CCOc1ccccc1CN1C(=O)CCC1(C)C(=O)NC1CCCC1 (centres undefined) | inactive |
| O=[N+]([O-])c1cccc(CN2CCN(C/C=C/c3ccccc3)CC2)c1 | inconclusive: 26% |
| Cc1nc(NC(=O)c2ccc3c(c2)OCO3)sc1C | inconclusive: 14% |
| O=C(CCc1cn(Cc2ccccc2)c2ccccc12)NCCN1CCOCC1 | inconclusive: 13% |
| Cc1ccc(C2CC(=O)C3=C(C2)Nc2ccccc2NC3c2cccc(F)c2)cc1 (centres undefined) | inconclusive: 21% |

| SMILES | inhibition |
| --- | --- |
| Cc1ccc(-c2nc3cnccn3c2Nc2ccc(C(C)C)cc2)o1 | inconclusive: 11% |
| COc1ccccc1NC(=O)C1C(c2ccccc2)=C1c1ccccc1 | inconclusive: 26% |
| COc1cccc(CNC(=O)c2cc3cc4ccc(OC)cc4nc3o2)c1 | inconclusive: 13% |
| O=[N+]([O-])c1ccc(CN2CCC(N3CCCCC3)CC2)cc1 | inconclusive: 10% |
| CCCCOc1ccc(C2=N/C(=C\c3ccccc3OC)C(=O)O2)cc1 | inconclusive: 23% |
| CN(Cc1cccc(C(=O)Nc2ccc3c(c2)CCC3=O)c1)Cc1ccno1 | inconclusive: 10% |
| Cc1ccc(CNCc2cccnc2N2CCCC(O)C2)o1 (centres undefined) | inactive |
| CNC(=O)[C@@H]1C[C@H](N)CN1C(=O)CC1CCN(Cc2ccccc2)CC1 | inconclusive: 14% |
| COc1ccc(-c2csc(/C(C#N)=C\Nc3cccc(C(F)(F)F)c3)n2)cc1OC | inactive |
| Cc1onc(-c2c(Cl)cccc2Cl)c1C(=O)Nc1ccncc1 | inactive |
| Fc1ccc(-c2n[nH]c3c2CN(CCCc2cccnc2)CC3)cc1F | inactive |
| CC(C(=O)N1CCc2onc(-c3cccc(F)c3)c2C1)n1ccnc1 (centres undefined) | inactive |
| COc1ccc(CCN(C)CCc2ccc(OC)c(OC)c2)cc1OC | inconclusive: 20% |
| Clc1cccc(N2CCN(Cc3cccs3)CC2)c1 | inconclusive: 13% |
| O=C(c1cc2c(=O)oc3ccccc3c2s1)N1CCCc2ccccc21 | inconclusive: 12% |
| CCOc1c(N2CCCc3ccccc32)c(=O)c1=O | inactive |
| O=[N+]([O-])c1cccc(-c2noc([C@@H]3Cc4nc[nH]c4CN3)n2)c1 | inconclusive: 15% |
| CCOc1nc(-c2ccncc2)nc2ccccc12 | inconclusive: 14% |
| Cc1ccc(NC(=O)CC(=O)N2CC[C@@H](O)C2)c(C)c1 | inconclusive: 15% |
| O=C1CC(c2ccccc2)CC2=C1C(c1ccc(Cl)cc1)C1=C(N2)c2ccccc2C1=O (centres undefined) | inconclusive: 14% |

Two successive entries from above:

| SMILES | inhibition |
| --- | --- |
| CCOc1nc(-c2ccncc2)nc2ccccc12 | inconclusive: 14% |
| Cc1ccc(NC(=O)CC(=O)N2CC[C@@H](O)C2)c(C)c1 | inconclusive: 15% |

An excerpt from above in order of length of the SMILES, low to high:

| SMILES | inhibition |
| --- | --- |
| CCOc1c(N2CCCc3ccccc32)c(=O)c1=O | inactive |
| Cc1ccc(CNCc2cccnc2N2CCCC(O)C2)o1 (centres undefined) | inactive |
| Cc1ccc(NC(=O)CC(=O)N2CC[C@@H](O)C2)c(C)c1 | inconclusive: 15% |

Next part.

| SMILES | inhibition |
| --- | --- |
| O=C(c1ccc(-c2cccc(F)c2)nc1)N1CC[C@H](CO)[C@@H](O)C1 | inconclusive: 10% |
| CCc1[nH]c2c(CNC(=O)CCn3ccc(=O)[nH]c3=O)cc(C)cc2c1C | inconclusive: 10% |
| CC(C)(C)C(=O)/C=C(N)\C=C\c1ccccc1 | active: 37% |
| CCOc1ccccc1NC(=O)c1cnc(N2CCN(c3ccccn3)CC2)c2ccccc12 | inconclusive: 18% |
| CCN(CC)c1ccc(C2Nc3ccc4ncccc4c3C3=C2C(=O)CC(C)(C)C3)cc1 (centres undefined) | inconclusive: 12% |
| Cc1cccc(NS(=O)(=O)c2ccc(NC(=O)c3ccccc3Cl)cc2)c1 | inconclusive: 13% |
| O=[N+]([O-])c1cc2c(cc1CN1CCN(c3ccccc3F)CC1)OCO2 | inconclusive: 15% |
| O=C(Nc1cccc([N+](=O)[O-])c1)c1ccncc1 | inconclusive: 16% |
| Cc1nnc(SCC(=O)N(Cc2cnn(C)c2)CC(C)C)s1 | inactive |
| O=C(C1CCCN(C2CCN(CCc3ccccc3)CC2)C1)N1CC=CC1 (centres undefined) | inconclusive: 17% |
| CCOc1ccc(S(=O)(=O)Nc2ccc3c(c2)OCO3)c2cccnc12 | inconclusive: 18% |
| COc1ccc(N=C2S[C@H]3[C@H]([C@@H](O)[C@H](O)C[C@@H]3C(N)=O)N2Cc2ccc(-c3ccccn3)cc2)cc1 | inconclusive: 10% |
| CC1=C(C(=O)Nc2ccc(C)cn2)C(c2ccccc2C)C2=C(CCCC2=O)N1 (centres undefined) | inconclusive: 13% |
| Clc1ccc(CSc2nccn2Cc2ccccc2)cc1 | inconclusive: 23% |
| N#Cc1c(Nc2ccccc2)c(C=O)c[nH]c1=O | inconclusive: 22% |
| CCCCc1ccc(C2C(C#N)=C(N)SC(N)=C2C#N)s1 | inconclusive: 27% |
| CC1=C[C@@H](CNC(=O)c2ccccn2)[C@H](C(C)C)C[C@H]1CC(=O)N1CCN(C)CC1 | inconclusive: 12% |
| CCOC(=O)c1c(NC(=O)c2cc(-c3cccs3)on2)sc(C)c1C | inconclusive: 11% |
| C=CCn1c(Br)nc2c1c(=O)[nH]c(=O)n2C | inconclusive: 10% |
